We go through 1 substance from patent publication US20240342161A1, “BISBENZYLISOQUINOLINES AS CONDITIONING AGENTS FOR IMMUNE THERAPY” (priority 2023, published 2024).

This series deals with K562 cells. Nature of the series: Protein recovered from K562 cell lysates after Tetrandrine exposure (BCA protein assay). The series is classed as cell-based, human. The settings on record: 24 hours, 8×10^6 K562 cells.

For the substance “6,6′,7,12-tetramethoxy-2,2′-dimethyl-berbaman [ES-3000]”, the “Protein Recovered” value (0.1 μM) was determined as 1.1 mg; the “Protein Recovered” value (1 μM) is on record as 1.1 mg; the “Protein Recovered” value (5 μM) is on record as 1.0 mg; the “Protein Recovered” value (10 μM) amounted to 1.1 mg; the “Protein Recovered” value (20 μM) worked out at 1.0 mg; the “Protein Recovered” value (40 μM) is on record as 0.9 mg.
